{
  "source": "patent US20160361353A1",
  "about": "“NITRIC OXIDE GENERATOR COMBINED WITH PDE5 INHIBITORS” (AusTech Pharmaceutical, priority 2015, published 2016)",
  "tested_on": "erectile dysfunction",
  "experiment": "Case study with one person: IIEF-EF questionnaire after 30 days of low dose tadalafil with Neo40 or placebo",
  "format": "in vivo, man",
  "details": "tadalafil 5 mg once daily without the NO generator (placebo instead of Neo40)",
  "note": "At least one structure is not confirmed: it was looked up by name or label, or the drawing left a doubt.",
  "data": [
    {"molecule": "CN1CC(=O)N2[C@H](c3ccc4c(c3)OCO4)c3[nH]c4ccccc4c3C[C@@H]2C1=O", "note": "[tadalafil]", "values": [
      {"measurement": "average scores on the IIEF-EF questionnaires", "result": "severe to moderate ED range"}
    ]}
  ]
}
